# This is one part of the list.
# B1: PGP3 (Chlamydia trachomatis), P0CE18 (protein)
# chain: MGNSGFYLYNTQNCVFADNIKVGQMTEPLKDQQIILGTTSTPVAAKMTASDGISLTVSNNPSTNASITIGLDAEKAYQLILEKLGDQILGGIADTIVDSTVQDILDKITTDPSLGLLKAFNNFPITNKIQCNGLFTPRNIETLLGGTEIGKFTVTPKSSGSMFLVSADIIASRMEGGVVLALVREGDSKPYAISYGYSSGVPNLCSLRTRIINTGLTPTTYSLRVGGLESGVVWVNALSNGNDILGITNTSNVSFLEVIPQTNA
# Tests used:
# Experiment in all cases: glycan array binding signal (z-score within array); higher = stronger binding
# Details in all cases: glycan notation: IUPAC condensed, linker removed
# [1] = target: Neu5Ac(a2-3)Gal(b1-4)GlcNAc(b1-3)GalNAc
# In short: (§1)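 The binding signal is a Z-score computed within each array and averaged over linkers. Arrays of the same protein sequence at different concentrations or buffers were also averaged together. Data originate from 3228 arrays in the Consortium for Functional Glycomics database, kept only where the protein sequence was available.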
# [2] = target: Neu5Ac(a2-3)Gal(b1-4)GlcNAc(b1-6)[Gal(b1-3)]GalNAc
# In short: as §1
# [3] = target: Neu5Ac(a2-3)Gal(b1-4)GlcNAc(b1-6)[Neu5Ac(a2-3)Gal(b1-3)]GalNAc
# In short: as §1
# [4] = target: Neu5Ac(a2-3)Gal(b1-4)GlcNAc6S
# In short: as §1
# [5] = target: Neu5Ac(a2-3)Gal(b1-4)[Fuc(a1-3)]GlcNAc
# In short: as §1
# [6] = target: Neu5Ac(a2-3)Gal(b1-4)[Fuc(a1-3)]GlcNAc(b1-3)Gal
# In short: as §1
# [7] = target: Neu5Ac(a2-3)Gal(b1-4)[Fuc(a1-3)]GlcNAc(b1-3)Gal(b1-4)GlcNAc
# In short: as §1
# [8] = target: Neu5Ac(a2-3)Gal(b1-4)[Fuc(a1-3)]GlcNAc(b1-3)Gal(b1-4)[Fuc(a1-3)]GlcNAc(b1-3)Gal(b1-4)[Fuc(a1-3)]GlcNAc
# In short: as §1
# [9] = target: Neu5Ac(a2-3)Gal(b1-4)[Fuc(a1-3)]GlcNAc(b1-3)GalNAc
# In short: as §1
# [10] = target: Neu5Ac(a2-3)Gal(b1-4)[Fuc(a1-3)]GlcNAc(b1-6)[Gal(b1-3)]GalNAc
# In short: as §1
# [11] = target: Neu5Ac(a2-3)Gal(b1-4)[Fuc(a1-3)]GlcNAc6S
# In short: as §1
# [12] = target: Neu5Ac(a2-3)Gal6S(b1-4)GlcNAc
# In short: as §1
# [13] = target: Neu5Ac(a2-3)Gal6S(b1-4)[Fuc(a1-3)]GlcNAc
# In short: as §1
# Neu5Ac(a2-3)GalNAc = target: Neu5Ac(a2-3)GalNAc
# In short: as §1
# [14] = target: Neu5Ac(a2-3)GalNAc(b1-4)GlcNAc
# In short: as §1
# [15] = target: Neu5Ac(a2-3)[GalNAc(b1-4)]Gal(b1-4)Glc
# In short: as §1
# [16] = target: Neu5Ac(a2-3)[GalNAc(b1-4)]Gal(b1-4)GlcNAc
# In short: as §1
# [17] = target: Neu5Ac(a2-3)[GalNAc(b1-4)]Gal(b1-4)GlcNAc(b1-3)GalNAc
# In short: as §1
# [18] = target: Neu5Ac(a2-3)[Neu5Ac(a2-6)]GalNAc
# In short: as §1
# Neu5Ac(a2-6)Gal = target: Neu5Ac(a2-6)Gal
# In short: as §1
# [19] = target: Neu5Ac(a2-6)Gal(b1-3)GlcNAc(b1-3)[Gal(b1-4)GlcNAc(b1-6)]Gal(b1-4)Glc
# In short: as §1
# Neu5Ac(a2-6)Gal(b1-4)Glc = target: Neu5Ac(a2-6)Gal(b1-4)Glc
# In short: as §1
# [20] = target: Neu5Ac(a2-6)Gal(b1-4)GlcNAc
# In short: as §1
# [21] = target: Neu5Ac(a2-6)Gal(b1-4)GlcNAc(b1-2)Man(a1-3)Man(b1-4)GlcNAc(b1-4)GlcNAc
# In short: as §1
# [22] = target: Neu5Ac(a2-6)Gal(b1-4)GlcNAc(b1-2)Man(a1-3)[Gal(b1-4)GlcNAc(b1-2)Man(a1-6)]Man(b1-4)GlcNAc(b1-4)GlcNAc
# In short: as §1
# [23] = target: Neu5Ac(a2-6)Gal(b1-4)GlcNAc(b1-2)Man(a1-3)[GlcNAc(b1-2)Man(a1-6)]Man(b1-4)GlcNAc(b1-4)GlcNAc
# In short: as §1
# [24] = target: Neu5Ac(a2-6)Gal(b1-4)GlcNAc(b1-2)Man(a1-3)[GlcNAc(b1-2)Man(b1-4)GlcNAc(b1-2)Man(a1-6)]Man(b1-4)GlcNAc(b1-4)GlcNAc
# In short: as §1
# [25] = target: Neu5Ac(a2-6)Gal(b1-4)GlcNAc(b1-2)Man(a1-3)[Man(a1-6)]Man(b1-4)GlcNAc(b1-4)GlcNAc
# In short: as §1
# [26] = target: Neu5Ac(a2-6)Gal(b1-4)GlcNAc(b1-2)Man(a1-3)[Neu5Ac(a2-6)Gal(b1-4)GlcNAc(b1-2)Man(a1-6)]Man(b1-4)GlcNAc(b1-4)GlcNAc
# In short: as §1
# [27] = target: Neu5Ac(a2-6)Gal(b1-4)GlcNAc(b1-2)Man(a1-6)Man(b1-4)GlcNAc(b1-4)GlcNAc
# In short: as §1
# [28] = target: Neu5Ac(a2-6)Gal(b1-4)GlcNAc(b1-2)Man(a1-6)[Gal(b1-4)GlcNAc(b1-2)Man(a1-3)]Man(b1-4)GlcNAc(b1-4)GlcNAc
# In short: as §1
# [29] = target: Neu5Ac(a2-6)Gal(b1-4)GlcNAc(b1-2)Man(a1-6)[GlcNAc(b1-2)Man(a1-3)]Man(b1-4)GlcNAc(b1-4)GlcNAc
# In short: as §1
binder,measurement,setting,value
B1,glycan array binding signal (z-score),[1],-1.59
same,glycan array binding signal (z-score),[2],0.041
same,glycan array binding signal (z-score),[3],-0.535
same,glycan array binding signal (z-score),[4],-1.53
same,glycan array binding signal (z-score),[5],-0.763
same,glycan array binding signal (z-score),[6],0.164
same,glycan array binding signal (z-score),[7],0.128
same,glycan array binding signal (z-score),[8],1.86
same,glycan array binding signal (z-score),[9],2.05
same,glycan array binding signal (z-score),[10],-1.3
same,glycan array binding signal (z-score),[11],-0.45
same,glycan array binding signal (z-score),[12],2.5
same,glycan array binding signal (z-score),[13],0.195
same,glycan array binding signal (z-score),Neu5Ac(a2-3)GalNAc,1.01
same,glycan array binding signal (z-score),[14],-0.907
same,glycan array binding signal (z-score),[15],-0.991
same,glycan array binding signal (z-score),[16],0.973
same,glycan array binding signal (z-score),[17],0.646
same,glycan array binding signal (z-score),[18],0.358
same,glycan array binding signal (z-score),Neu5Ac(a2-6)Gal,0.553
same,glycan array binding signal (z-score),[19],0.508
same,glycan array binding signal (z-score),Neu5Ac(a2-6)Gal(b1-4)Glc,-0.027
same,glycan array binding signal (z-score),[20],0.565
same,glycan array binding signal (z-score),[21],0.871
same,glycan array binding signal (z-score),[22],1.21
same,glycan array binding signal (z-score),[23],0.031
same,glycan array binding signal (z-score),[24],0.983
same,glycan array binding signal (z-score),[25],-0.215
same,glycan array binding signal (z-score),[26],0.306
same,glycan array binding signal (z-score),[27],-0.576
same,glycan array binding signal (z-score),[28],-0.106
same,glycan array binding signal (z-score),[29],0.791

# Reformatted: entries from further up
binder | measurement | setting | value
B1 | glycan array binding signal (z-score) | [10] | -1.3
same | glycan array binding signal (z-score) | [11] | -0.45

# From the supplement of paper PMC8728848
